The supplement of paper PMC12819154, “High-throughput peptide-centric local stability assay extends protein–ligand identification to membrane proteins, tissues and bacteria” (Nature Structural & Molecular Biology, 2025)
This is one part of the list. Most entries show no effect beyond the scatter of the controls.

Chains of the proteins cited; added tags and fusions are not shown. Lines headed by an entry give the natural chain unless they say otherwise; changes in a name come on top.
UniProt P04370, whole entry: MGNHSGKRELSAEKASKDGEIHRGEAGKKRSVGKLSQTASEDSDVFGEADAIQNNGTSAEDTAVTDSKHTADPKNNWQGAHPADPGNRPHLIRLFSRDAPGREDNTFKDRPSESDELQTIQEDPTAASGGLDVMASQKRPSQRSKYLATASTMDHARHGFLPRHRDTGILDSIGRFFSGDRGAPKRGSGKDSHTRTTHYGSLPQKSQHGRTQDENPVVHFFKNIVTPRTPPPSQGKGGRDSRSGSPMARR
UniProt P18242: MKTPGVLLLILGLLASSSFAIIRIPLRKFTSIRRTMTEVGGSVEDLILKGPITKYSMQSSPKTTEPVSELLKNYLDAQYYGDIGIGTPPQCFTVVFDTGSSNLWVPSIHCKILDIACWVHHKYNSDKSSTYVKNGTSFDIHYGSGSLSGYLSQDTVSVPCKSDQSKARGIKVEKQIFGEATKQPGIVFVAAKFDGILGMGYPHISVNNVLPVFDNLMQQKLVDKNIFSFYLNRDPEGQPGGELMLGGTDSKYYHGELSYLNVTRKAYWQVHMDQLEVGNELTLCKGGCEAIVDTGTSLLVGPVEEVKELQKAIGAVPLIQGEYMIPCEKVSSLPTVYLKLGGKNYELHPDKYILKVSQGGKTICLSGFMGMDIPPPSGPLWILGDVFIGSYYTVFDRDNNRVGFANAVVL
UniProt P28033: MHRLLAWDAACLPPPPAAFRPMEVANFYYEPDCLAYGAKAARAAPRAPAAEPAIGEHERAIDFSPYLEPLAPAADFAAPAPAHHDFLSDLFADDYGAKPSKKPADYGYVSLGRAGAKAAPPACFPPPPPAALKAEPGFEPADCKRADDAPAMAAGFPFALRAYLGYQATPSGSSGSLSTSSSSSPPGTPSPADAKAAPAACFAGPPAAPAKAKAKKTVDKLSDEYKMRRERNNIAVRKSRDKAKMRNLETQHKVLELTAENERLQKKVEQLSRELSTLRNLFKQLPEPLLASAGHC
UniProt P02802: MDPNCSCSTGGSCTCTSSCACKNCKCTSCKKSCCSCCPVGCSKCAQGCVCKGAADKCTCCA
UniProt P14576: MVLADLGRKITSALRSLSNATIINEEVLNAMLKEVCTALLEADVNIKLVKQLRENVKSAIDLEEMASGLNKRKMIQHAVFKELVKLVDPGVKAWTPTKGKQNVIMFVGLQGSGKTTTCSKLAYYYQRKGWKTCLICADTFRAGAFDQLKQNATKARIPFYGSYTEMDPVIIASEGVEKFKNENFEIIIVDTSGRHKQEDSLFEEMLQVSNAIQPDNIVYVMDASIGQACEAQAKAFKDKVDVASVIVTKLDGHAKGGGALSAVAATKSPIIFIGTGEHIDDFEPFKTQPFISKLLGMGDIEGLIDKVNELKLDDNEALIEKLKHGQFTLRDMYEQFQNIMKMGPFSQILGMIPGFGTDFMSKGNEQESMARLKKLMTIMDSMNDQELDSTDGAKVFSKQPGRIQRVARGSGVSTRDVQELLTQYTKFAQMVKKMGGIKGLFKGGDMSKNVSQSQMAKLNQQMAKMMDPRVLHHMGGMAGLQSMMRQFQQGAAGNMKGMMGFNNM
UniProt P09803: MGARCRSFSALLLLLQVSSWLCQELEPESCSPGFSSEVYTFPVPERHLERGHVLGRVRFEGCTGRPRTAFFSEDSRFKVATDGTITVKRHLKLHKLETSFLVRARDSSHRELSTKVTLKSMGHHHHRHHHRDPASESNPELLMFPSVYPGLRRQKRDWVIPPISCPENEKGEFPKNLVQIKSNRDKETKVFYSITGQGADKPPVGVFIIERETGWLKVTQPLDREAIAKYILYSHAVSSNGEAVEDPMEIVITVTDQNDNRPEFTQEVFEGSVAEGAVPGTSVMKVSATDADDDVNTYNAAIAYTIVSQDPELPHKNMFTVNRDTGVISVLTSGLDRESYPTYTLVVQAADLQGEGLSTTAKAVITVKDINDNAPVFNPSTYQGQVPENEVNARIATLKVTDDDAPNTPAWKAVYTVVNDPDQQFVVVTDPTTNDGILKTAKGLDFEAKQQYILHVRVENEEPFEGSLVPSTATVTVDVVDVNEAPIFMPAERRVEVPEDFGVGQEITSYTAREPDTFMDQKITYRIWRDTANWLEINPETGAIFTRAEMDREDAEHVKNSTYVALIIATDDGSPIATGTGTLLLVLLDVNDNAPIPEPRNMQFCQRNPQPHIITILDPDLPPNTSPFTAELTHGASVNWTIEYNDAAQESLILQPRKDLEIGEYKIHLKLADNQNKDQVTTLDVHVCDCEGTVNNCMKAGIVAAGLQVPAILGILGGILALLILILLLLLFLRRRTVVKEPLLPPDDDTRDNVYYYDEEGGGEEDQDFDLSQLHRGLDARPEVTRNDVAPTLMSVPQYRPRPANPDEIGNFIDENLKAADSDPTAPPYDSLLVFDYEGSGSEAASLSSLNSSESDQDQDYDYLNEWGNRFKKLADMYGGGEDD
UniProt P11725: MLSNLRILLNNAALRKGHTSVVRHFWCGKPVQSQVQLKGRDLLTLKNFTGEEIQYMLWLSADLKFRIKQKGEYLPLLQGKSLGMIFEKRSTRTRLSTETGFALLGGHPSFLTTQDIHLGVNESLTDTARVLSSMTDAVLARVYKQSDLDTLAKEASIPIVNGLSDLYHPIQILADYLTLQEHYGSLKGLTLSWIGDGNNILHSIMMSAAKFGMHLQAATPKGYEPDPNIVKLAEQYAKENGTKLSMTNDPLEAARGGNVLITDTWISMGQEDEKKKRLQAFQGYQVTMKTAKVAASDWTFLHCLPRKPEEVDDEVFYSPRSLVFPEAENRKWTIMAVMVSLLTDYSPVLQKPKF
UniProt P01901: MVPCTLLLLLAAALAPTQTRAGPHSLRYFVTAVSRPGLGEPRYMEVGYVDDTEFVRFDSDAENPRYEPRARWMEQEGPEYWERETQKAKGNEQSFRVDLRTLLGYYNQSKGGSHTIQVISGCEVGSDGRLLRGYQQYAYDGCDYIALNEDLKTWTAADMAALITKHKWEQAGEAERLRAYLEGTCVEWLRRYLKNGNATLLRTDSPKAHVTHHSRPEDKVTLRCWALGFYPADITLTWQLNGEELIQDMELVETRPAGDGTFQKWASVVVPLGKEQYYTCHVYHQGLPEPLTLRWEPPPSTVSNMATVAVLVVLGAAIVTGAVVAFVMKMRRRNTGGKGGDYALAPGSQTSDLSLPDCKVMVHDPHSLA
UniProt P06728: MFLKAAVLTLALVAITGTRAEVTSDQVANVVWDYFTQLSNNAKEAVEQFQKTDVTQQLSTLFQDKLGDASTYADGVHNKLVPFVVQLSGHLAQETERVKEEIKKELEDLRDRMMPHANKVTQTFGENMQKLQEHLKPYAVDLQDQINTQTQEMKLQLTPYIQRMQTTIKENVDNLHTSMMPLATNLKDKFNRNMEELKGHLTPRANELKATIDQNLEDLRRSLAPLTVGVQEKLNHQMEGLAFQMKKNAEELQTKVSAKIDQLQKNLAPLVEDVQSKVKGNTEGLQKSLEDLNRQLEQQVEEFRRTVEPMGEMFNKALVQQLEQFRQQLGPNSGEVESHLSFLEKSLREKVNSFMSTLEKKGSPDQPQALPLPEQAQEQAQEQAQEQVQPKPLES
UniProt P23249: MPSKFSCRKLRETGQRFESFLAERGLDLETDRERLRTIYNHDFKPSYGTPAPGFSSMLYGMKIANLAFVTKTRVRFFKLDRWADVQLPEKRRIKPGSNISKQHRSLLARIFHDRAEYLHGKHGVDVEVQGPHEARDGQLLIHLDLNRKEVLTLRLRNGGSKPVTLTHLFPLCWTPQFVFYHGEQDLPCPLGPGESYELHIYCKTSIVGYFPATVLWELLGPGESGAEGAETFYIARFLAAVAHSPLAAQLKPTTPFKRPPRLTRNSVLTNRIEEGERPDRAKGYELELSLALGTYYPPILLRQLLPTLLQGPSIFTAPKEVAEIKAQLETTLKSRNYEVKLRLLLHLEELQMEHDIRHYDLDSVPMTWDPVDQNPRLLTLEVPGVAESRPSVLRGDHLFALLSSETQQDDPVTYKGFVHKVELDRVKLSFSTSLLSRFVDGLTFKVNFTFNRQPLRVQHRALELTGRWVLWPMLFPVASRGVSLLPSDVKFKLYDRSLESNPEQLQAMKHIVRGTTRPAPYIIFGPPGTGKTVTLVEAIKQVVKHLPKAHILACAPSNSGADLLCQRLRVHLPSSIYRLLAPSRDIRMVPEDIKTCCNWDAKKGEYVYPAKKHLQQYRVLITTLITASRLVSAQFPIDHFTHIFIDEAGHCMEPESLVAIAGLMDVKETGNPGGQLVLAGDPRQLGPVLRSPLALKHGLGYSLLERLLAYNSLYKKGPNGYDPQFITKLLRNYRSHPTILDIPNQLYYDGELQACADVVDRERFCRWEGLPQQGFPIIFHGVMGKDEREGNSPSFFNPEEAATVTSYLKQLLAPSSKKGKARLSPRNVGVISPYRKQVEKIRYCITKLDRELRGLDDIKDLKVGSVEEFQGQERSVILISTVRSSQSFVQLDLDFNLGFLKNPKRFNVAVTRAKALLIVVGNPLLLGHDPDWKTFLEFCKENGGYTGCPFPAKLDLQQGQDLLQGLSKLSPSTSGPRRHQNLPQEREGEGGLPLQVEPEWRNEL
UniProt P26645: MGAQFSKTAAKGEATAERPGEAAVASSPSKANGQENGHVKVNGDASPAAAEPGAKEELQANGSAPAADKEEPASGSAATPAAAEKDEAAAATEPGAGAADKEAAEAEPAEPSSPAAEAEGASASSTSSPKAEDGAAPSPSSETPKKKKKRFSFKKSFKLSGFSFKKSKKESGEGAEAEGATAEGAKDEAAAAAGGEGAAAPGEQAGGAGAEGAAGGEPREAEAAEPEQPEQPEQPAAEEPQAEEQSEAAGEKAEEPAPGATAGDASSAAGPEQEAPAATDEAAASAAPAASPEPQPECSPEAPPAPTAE
UniProt P09671: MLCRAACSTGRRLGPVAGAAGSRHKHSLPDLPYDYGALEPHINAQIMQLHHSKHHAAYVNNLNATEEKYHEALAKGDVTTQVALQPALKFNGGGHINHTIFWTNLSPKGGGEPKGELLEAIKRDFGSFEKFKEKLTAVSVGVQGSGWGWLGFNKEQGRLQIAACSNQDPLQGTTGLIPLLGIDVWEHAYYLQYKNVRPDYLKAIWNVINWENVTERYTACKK
UniProt P13707: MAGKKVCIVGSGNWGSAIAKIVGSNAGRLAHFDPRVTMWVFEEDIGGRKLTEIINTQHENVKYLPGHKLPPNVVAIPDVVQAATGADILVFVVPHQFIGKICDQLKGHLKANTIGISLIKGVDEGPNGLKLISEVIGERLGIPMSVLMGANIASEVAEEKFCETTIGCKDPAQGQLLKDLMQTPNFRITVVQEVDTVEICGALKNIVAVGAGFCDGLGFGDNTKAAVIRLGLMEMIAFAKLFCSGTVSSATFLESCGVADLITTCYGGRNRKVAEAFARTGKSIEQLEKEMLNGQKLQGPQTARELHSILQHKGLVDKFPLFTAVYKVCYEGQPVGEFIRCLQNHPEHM
UniProt P11680, whole entry: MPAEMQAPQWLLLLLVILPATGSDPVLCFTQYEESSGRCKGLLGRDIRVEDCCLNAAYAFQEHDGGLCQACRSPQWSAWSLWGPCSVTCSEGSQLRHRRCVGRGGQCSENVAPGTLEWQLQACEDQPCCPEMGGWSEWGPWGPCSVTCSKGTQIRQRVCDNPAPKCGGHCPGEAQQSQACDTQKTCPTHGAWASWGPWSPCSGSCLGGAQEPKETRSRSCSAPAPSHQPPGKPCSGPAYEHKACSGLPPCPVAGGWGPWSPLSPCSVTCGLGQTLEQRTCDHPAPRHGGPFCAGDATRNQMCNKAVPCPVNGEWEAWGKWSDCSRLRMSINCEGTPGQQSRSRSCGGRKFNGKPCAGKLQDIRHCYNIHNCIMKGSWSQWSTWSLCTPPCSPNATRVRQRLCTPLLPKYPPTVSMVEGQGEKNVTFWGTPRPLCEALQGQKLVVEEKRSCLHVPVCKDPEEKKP
UniProt P15626: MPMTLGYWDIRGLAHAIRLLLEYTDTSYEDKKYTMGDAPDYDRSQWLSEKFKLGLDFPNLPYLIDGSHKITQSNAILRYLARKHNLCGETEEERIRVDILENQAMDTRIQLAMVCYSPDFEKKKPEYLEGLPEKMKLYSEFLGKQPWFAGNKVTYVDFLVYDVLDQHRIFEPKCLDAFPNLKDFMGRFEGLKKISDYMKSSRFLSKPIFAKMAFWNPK
UniProt P09103: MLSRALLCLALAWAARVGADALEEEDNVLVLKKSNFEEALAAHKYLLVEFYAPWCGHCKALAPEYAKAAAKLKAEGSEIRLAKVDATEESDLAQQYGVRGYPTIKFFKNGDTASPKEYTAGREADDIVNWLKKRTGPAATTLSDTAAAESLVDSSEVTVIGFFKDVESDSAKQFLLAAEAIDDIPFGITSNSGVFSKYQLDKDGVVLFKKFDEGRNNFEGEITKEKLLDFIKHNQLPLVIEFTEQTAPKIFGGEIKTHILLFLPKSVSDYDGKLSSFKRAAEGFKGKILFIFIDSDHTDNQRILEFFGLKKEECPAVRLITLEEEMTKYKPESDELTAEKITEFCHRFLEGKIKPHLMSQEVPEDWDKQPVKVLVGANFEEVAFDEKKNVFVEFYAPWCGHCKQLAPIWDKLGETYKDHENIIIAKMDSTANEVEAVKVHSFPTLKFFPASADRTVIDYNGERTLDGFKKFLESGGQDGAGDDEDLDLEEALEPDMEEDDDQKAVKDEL

Compound: CN[C@@H]1C[C@H]2O[C@@](C)([C@@H]1OC)n1c3ccccc3c3c4c(c5c6ccccc6n2c5c31)C(=O)NC4 [staurosporine]
Assay: log2 fold change of pooled soluble protein (PISA), ligand vs vehicle (log2 ratio); higher = more thermally stabilized
Conditions: ligand concentration: 20 uM; assay format: PISA pool 52.9/55.5/58.6 C

Target	log2 fold change of pooled soluble protein
UniProt P27612	0.0833
UniProt P08228	0.0268
UniProt P04370	0.122
UniProt P11835	-0.0541
UniProt P18242	-0.00323
UniProt P15105	0.0762
UniProt P19157	-0.112
UniProt P14685	-0.000694
UniProt P15508	-0.099
UniProt P01887	-0.114
UniProt P28033	0.292
UniProt P02802	0.486
UniProt P07309	-0.273
UniProt P14576	-0.191
UniProt P09803	0.0813
UniProt P19253	0.00632
UniProt P17665	0.0775
UniProt P11725	-0.00397
UniProt P23116	-0.036

Reformatted: results already given.

| Target | log2 fold change of pooled soluble protein |
| --- | --- |
| UniProt P18242 | -0.00323 |
| UniProt P15105 | 0.0762 |
| UniProt P19157 | -0.112 |

Following part.

Target	log2 fold change of pooled soluble protein
UniProt P01901	-0.026
UniProt P06728	-0.0634
UniProt P23249	-0.0364
UniProt P26645	0.157
UniProt P14246	-0.137
UniProt P28271	0.032
UniProt P09671	-0.299
UniProt P11087	0.044
UniProt P02798	-0.494
UniProt P13707	-0.0853
UniProt P26262	-0.0198
UniProt P25688	-0.175
UniProt P11680	-0.116
UniProt P15626	0.106
UniProt P18581	0.0638
UniProt P09103	0.015
UniProt P16858	-0.0992
UniProt P26350	0.0882
